Results reported in the supplement of paper PMC10849652.
This is one part of the list.

Amino acid sequences for entries named in this document (tags omitted). A change or cut given only in a name is not applied to a line headed by its entry.
UniProt Q8TCZ2: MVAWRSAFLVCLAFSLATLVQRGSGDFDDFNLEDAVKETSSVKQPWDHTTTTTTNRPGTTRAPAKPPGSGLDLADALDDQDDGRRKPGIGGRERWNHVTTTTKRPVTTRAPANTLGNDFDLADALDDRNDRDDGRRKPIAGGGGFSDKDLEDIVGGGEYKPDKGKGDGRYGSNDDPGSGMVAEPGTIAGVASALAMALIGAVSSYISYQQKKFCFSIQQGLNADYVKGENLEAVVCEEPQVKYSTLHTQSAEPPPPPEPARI
UniProt Q4G0I0: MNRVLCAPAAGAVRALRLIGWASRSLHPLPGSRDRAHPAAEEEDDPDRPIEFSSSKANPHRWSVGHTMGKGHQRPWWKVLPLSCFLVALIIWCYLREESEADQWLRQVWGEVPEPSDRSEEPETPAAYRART
UniProt Q12834, whole entry, looked up: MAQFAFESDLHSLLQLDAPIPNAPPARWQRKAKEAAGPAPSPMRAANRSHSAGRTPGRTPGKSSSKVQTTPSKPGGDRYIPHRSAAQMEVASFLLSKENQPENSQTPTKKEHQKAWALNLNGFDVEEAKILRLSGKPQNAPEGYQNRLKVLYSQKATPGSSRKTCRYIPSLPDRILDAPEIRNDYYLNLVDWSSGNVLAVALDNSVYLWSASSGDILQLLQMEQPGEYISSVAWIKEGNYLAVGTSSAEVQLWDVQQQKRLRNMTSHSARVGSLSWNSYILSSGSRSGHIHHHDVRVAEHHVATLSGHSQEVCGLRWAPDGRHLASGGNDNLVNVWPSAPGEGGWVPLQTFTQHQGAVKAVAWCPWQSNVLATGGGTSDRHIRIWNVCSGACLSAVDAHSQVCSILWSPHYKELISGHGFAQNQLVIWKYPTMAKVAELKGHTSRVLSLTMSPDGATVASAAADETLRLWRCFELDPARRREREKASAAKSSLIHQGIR
UniProt P48643, whole entry, looked up: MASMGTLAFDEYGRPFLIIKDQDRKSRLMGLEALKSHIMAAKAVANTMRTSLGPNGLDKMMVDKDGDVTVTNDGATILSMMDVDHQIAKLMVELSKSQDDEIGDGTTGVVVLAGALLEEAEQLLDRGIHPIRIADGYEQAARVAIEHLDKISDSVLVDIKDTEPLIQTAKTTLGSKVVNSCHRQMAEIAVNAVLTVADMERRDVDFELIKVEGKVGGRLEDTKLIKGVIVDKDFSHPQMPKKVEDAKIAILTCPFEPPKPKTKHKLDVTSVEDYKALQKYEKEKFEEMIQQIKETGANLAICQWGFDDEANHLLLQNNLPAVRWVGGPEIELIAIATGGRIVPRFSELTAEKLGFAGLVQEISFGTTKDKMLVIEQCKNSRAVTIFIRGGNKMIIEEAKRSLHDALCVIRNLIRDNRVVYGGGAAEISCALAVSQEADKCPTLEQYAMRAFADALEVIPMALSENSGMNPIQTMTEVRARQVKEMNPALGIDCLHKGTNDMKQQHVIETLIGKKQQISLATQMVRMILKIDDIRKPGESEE
UniProt P27701: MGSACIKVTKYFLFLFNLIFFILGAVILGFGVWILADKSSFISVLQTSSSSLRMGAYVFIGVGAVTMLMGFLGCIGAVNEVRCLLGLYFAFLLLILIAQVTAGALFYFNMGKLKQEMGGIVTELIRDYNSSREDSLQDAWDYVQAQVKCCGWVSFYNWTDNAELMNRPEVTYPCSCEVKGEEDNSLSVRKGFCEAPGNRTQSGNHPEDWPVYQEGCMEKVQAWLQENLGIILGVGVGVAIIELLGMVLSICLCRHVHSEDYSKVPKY
UniProt O15446, whole entry, looked up: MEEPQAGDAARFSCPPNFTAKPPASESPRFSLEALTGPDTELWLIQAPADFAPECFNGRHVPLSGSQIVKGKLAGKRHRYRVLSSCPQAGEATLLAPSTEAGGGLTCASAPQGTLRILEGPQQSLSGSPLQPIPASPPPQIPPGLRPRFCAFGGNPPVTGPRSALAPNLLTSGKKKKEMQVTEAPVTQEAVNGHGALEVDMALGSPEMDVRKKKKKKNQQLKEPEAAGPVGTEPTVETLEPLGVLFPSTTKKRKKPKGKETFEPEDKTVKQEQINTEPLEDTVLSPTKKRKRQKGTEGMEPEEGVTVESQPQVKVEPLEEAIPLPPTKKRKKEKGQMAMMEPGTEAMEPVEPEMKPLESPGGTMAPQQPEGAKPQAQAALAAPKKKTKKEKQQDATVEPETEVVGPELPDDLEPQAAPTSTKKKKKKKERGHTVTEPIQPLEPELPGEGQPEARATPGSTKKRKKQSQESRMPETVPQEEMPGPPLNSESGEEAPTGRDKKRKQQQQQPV
UniProt Q13185: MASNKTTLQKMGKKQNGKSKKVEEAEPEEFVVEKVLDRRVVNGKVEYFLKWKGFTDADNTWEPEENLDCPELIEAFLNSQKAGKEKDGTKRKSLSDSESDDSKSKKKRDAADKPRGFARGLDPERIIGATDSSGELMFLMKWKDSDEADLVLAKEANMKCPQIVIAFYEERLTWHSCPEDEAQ
UniProt Q3V6T2: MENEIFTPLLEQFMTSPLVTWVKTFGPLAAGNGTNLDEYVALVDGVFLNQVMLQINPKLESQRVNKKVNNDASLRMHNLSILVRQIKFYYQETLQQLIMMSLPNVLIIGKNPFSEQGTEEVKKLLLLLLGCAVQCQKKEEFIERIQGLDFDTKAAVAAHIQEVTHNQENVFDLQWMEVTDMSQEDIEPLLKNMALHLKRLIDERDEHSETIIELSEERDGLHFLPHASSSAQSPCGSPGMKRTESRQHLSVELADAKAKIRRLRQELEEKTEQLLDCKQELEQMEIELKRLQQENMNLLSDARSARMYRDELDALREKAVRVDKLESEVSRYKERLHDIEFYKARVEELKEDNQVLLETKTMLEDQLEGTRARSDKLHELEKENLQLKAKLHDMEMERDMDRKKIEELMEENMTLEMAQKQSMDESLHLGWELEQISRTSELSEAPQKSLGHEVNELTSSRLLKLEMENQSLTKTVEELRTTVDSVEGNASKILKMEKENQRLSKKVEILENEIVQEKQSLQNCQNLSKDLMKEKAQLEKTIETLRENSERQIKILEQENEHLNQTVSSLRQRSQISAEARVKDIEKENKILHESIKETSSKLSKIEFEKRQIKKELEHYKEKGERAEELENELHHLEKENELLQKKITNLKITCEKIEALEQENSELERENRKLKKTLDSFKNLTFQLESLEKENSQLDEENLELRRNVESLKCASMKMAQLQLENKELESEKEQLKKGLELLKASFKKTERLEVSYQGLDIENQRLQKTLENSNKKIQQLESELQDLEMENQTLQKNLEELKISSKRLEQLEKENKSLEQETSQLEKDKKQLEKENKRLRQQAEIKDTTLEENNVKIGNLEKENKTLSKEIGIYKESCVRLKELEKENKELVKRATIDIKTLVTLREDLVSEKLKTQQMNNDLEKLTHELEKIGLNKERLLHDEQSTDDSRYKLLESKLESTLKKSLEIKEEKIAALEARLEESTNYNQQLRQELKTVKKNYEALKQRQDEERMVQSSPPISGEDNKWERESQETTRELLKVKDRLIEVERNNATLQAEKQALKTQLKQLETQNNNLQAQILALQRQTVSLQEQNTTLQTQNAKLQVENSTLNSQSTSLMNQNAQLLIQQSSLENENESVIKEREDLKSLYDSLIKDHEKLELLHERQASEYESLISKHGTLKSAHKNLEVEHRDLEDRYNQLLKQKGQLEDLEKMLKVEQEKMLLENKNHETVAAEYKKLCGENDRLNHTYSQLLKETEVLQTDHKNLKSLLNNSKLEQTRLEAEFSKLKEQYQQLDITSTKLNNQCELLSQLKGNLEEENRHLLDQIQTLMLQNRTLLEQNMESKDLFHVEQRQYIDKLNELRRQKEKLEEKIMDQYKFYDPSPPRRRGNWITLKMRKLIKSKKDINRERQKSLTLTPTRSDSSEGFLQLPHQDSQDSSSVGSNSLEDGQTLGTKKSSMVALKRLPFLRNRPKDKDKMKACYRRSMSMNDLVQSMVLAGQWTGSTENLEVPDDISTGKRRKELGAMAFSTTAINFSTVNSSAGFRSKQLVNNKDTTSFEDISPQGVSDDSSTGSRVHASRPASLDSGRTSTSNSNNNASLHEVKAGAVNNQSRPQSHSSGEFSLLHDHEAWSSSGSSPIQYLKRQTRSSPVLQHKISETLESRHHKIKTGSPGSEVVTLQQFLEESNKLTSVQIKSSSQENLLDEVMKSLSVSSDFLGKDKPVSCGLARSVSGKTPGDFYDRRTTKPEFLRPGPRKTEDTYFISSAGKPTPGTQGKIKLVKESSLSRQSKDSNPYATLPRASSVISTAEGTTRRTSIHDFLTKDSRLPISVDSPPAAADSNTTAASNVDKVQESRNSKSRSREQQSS
UniProt Q15834: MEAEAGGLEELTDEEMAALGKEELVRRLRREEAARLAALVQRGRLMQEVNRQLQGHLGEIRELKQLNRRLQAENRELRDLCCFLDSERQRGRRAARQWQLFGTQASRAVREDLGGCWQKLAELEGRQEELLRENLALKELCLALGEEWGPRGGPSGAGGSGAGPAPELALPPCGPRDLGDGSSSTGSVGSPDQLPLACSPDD
UniProt Q13951, whole entry, looked up: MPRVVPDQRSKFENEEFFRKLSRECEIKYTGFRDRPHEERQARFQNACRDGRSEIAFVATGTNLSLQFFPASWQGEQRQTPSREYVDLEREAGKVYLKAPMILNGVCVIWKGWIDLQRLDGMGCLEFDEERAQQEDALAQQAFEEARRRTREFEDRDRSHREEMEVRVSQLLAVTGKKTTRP
UniProt Q8N4T8: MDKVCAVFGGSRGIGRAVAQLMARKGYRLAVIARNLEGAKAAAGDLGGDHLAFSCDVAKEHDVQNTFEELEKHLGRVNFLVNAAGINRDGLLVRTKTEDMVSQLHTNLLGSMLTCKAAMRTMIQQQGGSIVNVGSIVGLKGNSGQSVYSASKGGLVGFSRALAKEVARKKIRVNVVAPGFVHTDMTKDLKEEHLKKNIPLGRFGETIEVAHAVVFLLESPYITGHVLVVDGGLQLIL
UniProt Q6PK04: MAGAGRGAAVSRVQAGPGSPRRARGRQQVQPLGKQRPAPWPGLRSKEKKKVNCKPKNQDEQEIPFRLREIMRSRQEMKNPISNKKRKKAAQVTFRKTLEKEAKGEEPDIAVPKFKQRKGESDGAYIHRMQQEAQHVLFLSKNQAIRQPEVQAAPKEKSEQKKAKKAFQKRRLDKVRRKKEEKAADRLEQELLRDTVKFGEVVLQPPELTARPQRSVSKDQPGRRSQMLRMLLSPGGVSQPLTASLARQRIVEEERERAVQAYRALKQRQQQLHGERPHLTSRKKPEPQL
UniProt P42574: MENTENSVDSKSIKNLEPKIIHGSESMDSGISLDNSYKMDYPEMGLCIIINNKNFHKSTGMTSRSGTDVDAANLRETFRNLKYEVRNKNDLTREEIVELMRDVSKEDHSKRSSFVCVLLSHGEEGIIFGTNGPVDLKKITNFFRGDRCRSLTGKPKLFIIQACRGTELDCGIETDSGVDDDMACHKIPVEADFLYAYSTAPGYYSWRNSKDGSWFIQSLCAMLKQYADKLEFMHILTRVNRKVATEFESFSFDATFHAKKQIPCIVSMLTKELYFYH
UniProt Q8ND76: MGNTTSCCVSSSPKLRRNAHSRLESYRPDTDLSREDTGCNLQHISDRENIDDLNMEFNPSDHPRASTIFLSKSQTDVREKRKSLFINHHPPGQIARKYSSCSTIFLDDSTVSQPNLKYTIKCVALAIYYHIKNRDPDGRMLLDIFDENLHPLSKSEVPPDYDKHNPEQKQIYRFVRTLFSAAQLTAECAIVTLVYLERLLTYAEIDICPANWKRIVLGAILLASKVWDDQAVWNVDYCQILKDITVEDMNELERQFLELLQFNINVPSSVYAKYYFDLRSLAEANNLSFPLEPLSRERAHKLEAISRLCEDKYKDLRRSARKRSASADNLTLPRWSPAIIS
UniProt P60033: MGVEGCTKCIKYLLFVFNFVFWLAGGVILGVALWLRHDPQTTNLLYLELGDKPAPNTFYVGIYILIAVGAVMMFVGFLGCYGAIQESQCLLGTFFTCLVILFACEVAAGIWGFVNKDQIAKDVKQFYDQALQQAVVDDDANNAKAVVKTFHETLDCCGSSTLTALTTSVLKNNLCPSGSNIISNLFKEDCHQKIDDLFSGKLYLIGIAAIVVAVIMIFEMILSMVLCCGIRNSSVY
UniProt Q8N4S0: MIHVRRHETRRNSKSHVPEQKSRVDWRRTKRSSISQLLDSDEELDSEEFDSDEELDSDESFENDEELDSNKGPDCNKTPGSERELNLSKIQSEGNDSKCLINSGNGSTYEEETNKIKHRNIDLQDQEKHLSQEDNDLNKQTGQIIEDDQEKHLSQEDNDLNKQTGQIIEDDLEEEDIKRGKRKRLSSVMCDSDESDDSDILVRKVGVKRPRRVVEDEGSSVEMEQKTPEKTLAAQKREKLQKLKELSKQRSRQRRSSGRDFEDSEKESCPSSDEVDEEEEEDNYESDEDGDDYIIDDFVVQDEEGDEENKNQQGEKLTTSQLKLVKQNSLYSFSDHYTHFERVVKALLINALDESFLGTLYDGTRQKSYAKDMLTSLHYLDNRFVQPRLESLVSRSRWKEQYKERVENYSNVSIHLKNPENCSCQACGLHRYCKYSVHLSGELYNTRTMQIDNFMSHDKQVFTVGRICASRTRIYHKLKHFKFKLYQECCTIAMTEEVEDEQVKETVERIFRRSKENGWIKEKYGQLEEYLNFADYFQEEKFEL

Assays:
Assay in all cases: log2 fold change, soluble protein after heating vs DMSO (PISA); higher = thermal stabilisation; K562 cells, 10 uM, 30 min; active = over 0.2 and 3.5 SD of the protein, either way, in both replicates (recomputed)
[1] = compound: C1=CC=C(C=C1)[C@H](COC2=CC3=C(C=C2)NC(=O)N3)NC(=O)C4=CC=CN(C4=O)CC5=CC(=C(C=C5)F)F
Procedure, shortened: (§1)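 Soluble protein was quantified by TMTpro 16plex LC-MS/MS after channel sums were equalised. It was obtained as the supernatant after 21,000xg for 90 min from pooled aliquots of K562 cells (2×10^6 cells/mL, 10 μM compound, 30 min) heated for 3 min across 48°C-58°C and extracted in PBS with 0.5% NP-40 at 4°C. Thermal stability values are relative to control samples and come from duplicates. They are given as log2 fold changes.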

[2] = compound: CC1=C(SC2=C1C(=N[C@H](C3=NN=C(N32)C)CC(=O)N)C4=CC=C(C=C4)Cl)C
Procedure, shortened: as §1

[3] = compound: CC1=C2C(=CC=C1)N=C(N(C2=O)C3=CC=CC=C3C)CN4C=NC5=C(N=CN=C54)N
Procedure, shortened: as §1

[4] = compound: Cc1sc2c(c1C)C(c1ccc(Cl)cc1)=N[C@@H](CC(=O)OC(C)(C)C)c1nnc(C)n1-2
Procedure, shortened: as §1

[5] = compound: c1ccc([C@@H]2C[C@H]2NC2CCNCC2)cc1
Procedure, shortened: as §1

Measured: log2 fold change

CBARP (UniProt Q8N350)
inactive: [1] -0.005 | [2] -0.169 | [3] -0.095 | [4] 0.033 | [5] 0.034

CASP7 isoform 3 (UniProt P55210)
inactive: [1] 0.12

CCM2 isoform 2 (UniProt Q9BSQ5)
inactive: [1] 0.013 | [2] 0.144 | [3] 0.046 | [4] -0.161 | [5] -0.046

CD99L2 isoform 5 (UniProt Q8TCZ2)
inactive: [1] 0.07 | [2] 0.113 | [3] -0.145 | [4] -0.059 | [5] 0.025

CARM1 (UniProt Q86X55)
inactive: [1] 0.01 | [2] 0.018 | [3] 0.028 | [4] -0.009 | [5] 0.007

CDC34 (UniProt P49427)
inactive: [1] -0.087 | [2] 0.023 | [3] 0.079 | [4] 0.065 | [5] 0.032

CD276 (UniProt Q5ZPR3)
inactive: [1] 0.122

CCDC134 (UniProt Q9H6E4)
inactive: [1] 0.034 | [2] -0.014 | [3] -0.01 | [4] 0.014 | [5] 0.002

CARS isoform 3 (UniProt P49589)
inactive: [1] -0.014 | [2] 0.015 | [3] 0.011 | [4] 0.004 | [5] 0.001

CCSMST1 (UniProt Q4G0I0)
inactive: [1] -0.007 | [2] 0.064 | [3] 0.054 | [4] -0.083 | [5] -0.037

CCDC174 (UniProt Q6PII3)
inactive: [1] 0 | [2] 0.001 | [3] 0.024 | [4] -0.016 | [5] 0.017

CCDC12 (UniProt Q8WUD4)
inactive: [1] -0.018 | [2] 0.022 | [3] -0.045 | [4] -0.002 | [5] 0.022

CDC20 (UniProt Q12834)
inactive: [1] -0.01 | [2] -0.084 | [3] 0.153 | [4] 0.075 | [5] 0.071

CCDC59 (UniProt Q9P031)
inactive: [1] 0.012 | [2] -0.177 | [3] -0.214 | [4] 0.165 | [5] 0.052

CBFA2T2 isoform 4 (UniProt O43439)
inactive: [1] -0.063

CCT5 (UniProt P48643)
inactive: [1] -0.033 | [2] -0.018 | [3] -0.035 | [4] -0.023 | [5] -0.006

CCDC85C (UniProt A6NKD9)
inactive: [1] -0.042 | [2] 0.078 | [3] 0.026 | [4] 0.034 | [5] -0.09

CDC25A (UniProt P30304)
inactive: [1] 0.041

CD82 (UniProt P27701)
inactive: [1] 0.142

CD3EAP isoform 2 (UniProt O15446)
inactive: [1] 0.025 | [2] -0.037 | [3] -0.148 | [4] 0.103 | [5] 0.052

CD63 (UniProt P08962)
inactive: [1] 0.041 | [2] 0.02 | [3] -0.008 | [4] 0.009 | [5] 0.035

CAST isoform 6 (UniProt P20810)
inactive: [1] 0.023 | [2] 0.011 | [3] 0.073 | [4] 0.026 | [5] 0.065

CCDC93 (UniProt Q567U6)
inactive: [1] -0.099 | [2] -0.033 | [3] 0.069 | [4] -0.013 | [5] -0.048

CASP6 (UniProt P55212)
inactive: [1] -0.027 | [2] 0.028 | [3] -0.021 | [4] -0.035 | [5] -0.005

CDC37 (UniProt K7EKQ2)
inactive: [1] -0.03

CCZ1 (UniProt P86791)
inactive: [1] 0.011 | [2] 0.009 | [3] 0.02 | [4] 0.017 | [5] -0.024

CCDC97 (UniProt Q96F63)
inactive: [1] 0.045 | [2] 0.038 | [3] 0.166 | [4] 0.071 | [5] 0.022

CCDC115 (UniProt Q96NT0)
inactive: [1] 0.003 | [2] 0.008 | [3] -0.013 | [4] 0.012 | [5] 0.032

CBLB (UniProt Q13191)
inactive: [1] -0.048 | [2] 0.047 | [3] 0.009 | [4] 0.01 | [5] 0.061

CDC26 (UniProt Q8NHZ8)
inactive: [1] 0.05 | [2] 0.027 | [3] -0.346 | [4] -0.038 | [5] 0.022

CBX3 (UniProt Q13185)
inactive: [1] -0.008 | [2] 0.033 | [3] 0.035 | [4] -0.002 | [5] 0.019

CAT (UniProt P04040)
inactive: [1] 0.021 | [2] -0.002 | [3] 0.011 | [4] -0.021 | [5] 0.019

CCND3 (UniProt P30281)
inactive: [1] -0.105 | [2] -0.015 | [3] 0.121 | [4] 0.033 | [5] 0.053

CCDC88A (UniProt Q3V6T2)
inactive: [1] -0.173 | [2] -0.031 | [3] 0.073 | [4] -0.044 | [5] 0.051

CCS (UniProt O14618)
inactive: [1] -0.078 | [2] 0.083 | [3] 0.095 | [4] -0.034 | [5] 0.015

CCDC85B (UniProt Q15834)
inactive: [1] -0.05 | [2] -0.225 | [3] 0.108 | [4] 0.014 | [5] -0.407

CD68 (UniProt P34810)
inactive: [1] 0.021

CBX3 (UniProt B8ZZ43)
inactive: [1] 0.168

CBFB (UniProt Q13951)
inactive: [1] -0.044 | [2] 0.094 | [3] 0.108 | [4] -0.039 | [5] 0.001

CCT2 (UniProt P78371)
inactive: [1] -0.005 | [2] 0.003 | [3] -0.044 | [4] -0.019 | [5] 0.004

CCT4 (UniProt P50991)
inactive: [1] -0.036 | [2] -0.006 | [3] -0.013 | [4] -0.012 | [5] 0.007

CD47 (UniProt Q08722)
inactive: [1] 0.012 | [2] 0.005 | [3] -0.011 | [4] 0.006 | [5] 0.026

CCDC127 (UniProt Q96BQ5)
inactive: [1] 0.026 | [2] -0.012 | [3] -0.141 | [4] -0.056 | [5] -0.009

CBR4 (UniProt Q8N4T8)
inactive: [1] 0.014 | [2] 0.086 | [3] 0.06 | [4] 0.004 | [5] 0.042

CCDC137 (UniProt Q6PK04)
inactive: [1] 0.206 | [2] -0.474 | [3] -0.395 | [4] 0.323 | [5] 0.009

CBX5 (UniProt P45973)
inactive: [1] -0.001 | [2] 0.029 | [3] 0.05 | [4] 0.016 | [5] 0.008

CCDC22 (UniProt O60826)
inactive: [1] -0.04 | [2] 0.011 | [3] 0.068 | [4] 0.012 | [5] 0.008

CCDC91 (UniProt Q7Z6B0)
inactive: [1] -0.007 | [2] 0.012 | [3] 0.004 | [4] 0.01 | [5] 0.008

12 consecutive records already listed:
CCDC134 (UniProt Q9H6E4)
inactive: [1] 0.034 | [2] -0.014 | [3] -0.01 | [4] 0.014 | [5] 0.002

CARS isoform 3 (UniProt P49589)
inactive: [1] -0.014 | [2] 0.015 | [3] 0.011 | [4] 0.004 | [5] 0.001

CCSMST1 (UniProt Q4G0I0)
inactive: [1] -0.007 | [2] 0.064 | [3] 0.054 | [4] -0.083 | [5] -0.037

CCDC174 (UniProt Q6PII3)
inactive: [1] 0 | [2] 0.001 | [3] 0.024 | [4] -0.016 | [5] 0.017

CCDC12 (UniProt Q8WUD4)
inactive: [1] -0.018 | [2] 0.022 | [3] -0.045 | [4] -0.002 | [5] 0.022

CDC20 (UniProt Q12834)
inactive: [1] -0.01 | [2] -0.084 | [3] 0.153 | [4] 0.075 | [5] 0.071

CCDC59 (UniProt Q9P031)
inactive: [1] 0.012 | [2] -0.177 | [3] -0.214 | [4] 0.165 | [5] 0.052

CBFA2T2 isoform 4 (UniProt O43439)
inactive: [1] -0.063

CCT5 (UniProt P48643)
inactive: [1] -0.033 | [2] -0.018 | [3] -0.035 | [4] -0.023 | [5] -0.006

CCDC85C (UniProt A6NKD9)
inactive: [1] -0.042 | [2] 0.078 | [3] 0.026 | [4] 0.034 | [5] -0.09

CDC25A (UniProt P30304)
inactive: [1] 0.041

CD82 (UniProt P27701)
inactive: [1] 0.142

More entries:

CCNB2 (UniProt O95067)
inactive: [1] -0.005 | [2] 0.098 | [3] 0.033 | [4] 0.014 | [5] -0.056

CASP3 (UniProt P42574)
inactive: [1] 0.018 | [2] 0.004 | [3] -0.005 | [4] -0.055 | [5] 0.003

CASTOR2 (UniProt A6NHX0)
inactive: [1] 0.056 | [2] 0.078 | [3] 0.039 | [4] -0.065 | [5] -0.016

CCNY (UniProt Q8ND76)
inactive: [1] 0 | [2] -0.036 | [3] 0.078 | [4] 0.14 | [5] 0.06

CCDC43 (UniProt Q96MW1)
inactive: [1] -0.006 | [2] 0.019 | [3] 0.018 | [4] -0.012 | [5] 0

CD81 (UniProt P60033)
inactive: [1] -0.083 | [2] -0.013 | [3] -0.035 | [4] 0.03 | [5] 0.109

CCDC82 (UniProt Q8N4S0)
inactive: [1] -0.018 | [2] 0.056 | [3] 0.033 | [4] 0.043 | [5] 0.004

CDAN1 (UniProt Q8IWY9)
inactive: [1] -0.035 | [2] -0.049 | [3] 0.051 | [4] 0.091 | [5] 0.022

CCT7 (UniProt Q99832)
inactive: [1] -0.006 | [2] -0.013 | [3] -0.013 | [4] -0.022 | [5] 0.002

CDC16 (UniProt Q13042)
inactive: [1] 0.016 | [2] -0.023 | [3] -0.008 | [4] 0.038 | [5] 0.001
